The supplement of paper PMC12067093, “Discovery and optimisation of a covalent ligand for TRIM25 and its application to targeted protein ubiquitination” (Chemical Science, 2025)
Some of the results follow.

The chains behind the UniProt entries cited, without tags or fusion partners. Where a name states a change or a piece, a line headed by the entry shows the natural chain unless it says otherwise.
UniProt O00170: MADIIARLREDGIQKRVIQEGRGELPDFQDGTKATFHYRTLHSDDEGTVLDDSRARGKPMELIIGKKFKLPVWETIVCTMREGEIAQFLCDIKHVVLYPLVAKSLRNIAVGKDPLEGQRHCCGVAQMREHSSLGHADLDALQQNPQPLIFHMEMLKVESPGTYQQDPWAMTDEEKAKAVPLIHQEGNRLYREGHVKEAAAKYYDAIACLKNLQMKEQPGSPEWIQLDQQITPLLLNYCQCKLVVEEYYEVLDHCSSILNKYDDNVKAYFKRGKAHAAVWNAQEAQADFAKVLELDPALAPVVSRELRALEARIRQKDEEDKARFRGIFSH
UniProt Q99996, whole entry, looked up: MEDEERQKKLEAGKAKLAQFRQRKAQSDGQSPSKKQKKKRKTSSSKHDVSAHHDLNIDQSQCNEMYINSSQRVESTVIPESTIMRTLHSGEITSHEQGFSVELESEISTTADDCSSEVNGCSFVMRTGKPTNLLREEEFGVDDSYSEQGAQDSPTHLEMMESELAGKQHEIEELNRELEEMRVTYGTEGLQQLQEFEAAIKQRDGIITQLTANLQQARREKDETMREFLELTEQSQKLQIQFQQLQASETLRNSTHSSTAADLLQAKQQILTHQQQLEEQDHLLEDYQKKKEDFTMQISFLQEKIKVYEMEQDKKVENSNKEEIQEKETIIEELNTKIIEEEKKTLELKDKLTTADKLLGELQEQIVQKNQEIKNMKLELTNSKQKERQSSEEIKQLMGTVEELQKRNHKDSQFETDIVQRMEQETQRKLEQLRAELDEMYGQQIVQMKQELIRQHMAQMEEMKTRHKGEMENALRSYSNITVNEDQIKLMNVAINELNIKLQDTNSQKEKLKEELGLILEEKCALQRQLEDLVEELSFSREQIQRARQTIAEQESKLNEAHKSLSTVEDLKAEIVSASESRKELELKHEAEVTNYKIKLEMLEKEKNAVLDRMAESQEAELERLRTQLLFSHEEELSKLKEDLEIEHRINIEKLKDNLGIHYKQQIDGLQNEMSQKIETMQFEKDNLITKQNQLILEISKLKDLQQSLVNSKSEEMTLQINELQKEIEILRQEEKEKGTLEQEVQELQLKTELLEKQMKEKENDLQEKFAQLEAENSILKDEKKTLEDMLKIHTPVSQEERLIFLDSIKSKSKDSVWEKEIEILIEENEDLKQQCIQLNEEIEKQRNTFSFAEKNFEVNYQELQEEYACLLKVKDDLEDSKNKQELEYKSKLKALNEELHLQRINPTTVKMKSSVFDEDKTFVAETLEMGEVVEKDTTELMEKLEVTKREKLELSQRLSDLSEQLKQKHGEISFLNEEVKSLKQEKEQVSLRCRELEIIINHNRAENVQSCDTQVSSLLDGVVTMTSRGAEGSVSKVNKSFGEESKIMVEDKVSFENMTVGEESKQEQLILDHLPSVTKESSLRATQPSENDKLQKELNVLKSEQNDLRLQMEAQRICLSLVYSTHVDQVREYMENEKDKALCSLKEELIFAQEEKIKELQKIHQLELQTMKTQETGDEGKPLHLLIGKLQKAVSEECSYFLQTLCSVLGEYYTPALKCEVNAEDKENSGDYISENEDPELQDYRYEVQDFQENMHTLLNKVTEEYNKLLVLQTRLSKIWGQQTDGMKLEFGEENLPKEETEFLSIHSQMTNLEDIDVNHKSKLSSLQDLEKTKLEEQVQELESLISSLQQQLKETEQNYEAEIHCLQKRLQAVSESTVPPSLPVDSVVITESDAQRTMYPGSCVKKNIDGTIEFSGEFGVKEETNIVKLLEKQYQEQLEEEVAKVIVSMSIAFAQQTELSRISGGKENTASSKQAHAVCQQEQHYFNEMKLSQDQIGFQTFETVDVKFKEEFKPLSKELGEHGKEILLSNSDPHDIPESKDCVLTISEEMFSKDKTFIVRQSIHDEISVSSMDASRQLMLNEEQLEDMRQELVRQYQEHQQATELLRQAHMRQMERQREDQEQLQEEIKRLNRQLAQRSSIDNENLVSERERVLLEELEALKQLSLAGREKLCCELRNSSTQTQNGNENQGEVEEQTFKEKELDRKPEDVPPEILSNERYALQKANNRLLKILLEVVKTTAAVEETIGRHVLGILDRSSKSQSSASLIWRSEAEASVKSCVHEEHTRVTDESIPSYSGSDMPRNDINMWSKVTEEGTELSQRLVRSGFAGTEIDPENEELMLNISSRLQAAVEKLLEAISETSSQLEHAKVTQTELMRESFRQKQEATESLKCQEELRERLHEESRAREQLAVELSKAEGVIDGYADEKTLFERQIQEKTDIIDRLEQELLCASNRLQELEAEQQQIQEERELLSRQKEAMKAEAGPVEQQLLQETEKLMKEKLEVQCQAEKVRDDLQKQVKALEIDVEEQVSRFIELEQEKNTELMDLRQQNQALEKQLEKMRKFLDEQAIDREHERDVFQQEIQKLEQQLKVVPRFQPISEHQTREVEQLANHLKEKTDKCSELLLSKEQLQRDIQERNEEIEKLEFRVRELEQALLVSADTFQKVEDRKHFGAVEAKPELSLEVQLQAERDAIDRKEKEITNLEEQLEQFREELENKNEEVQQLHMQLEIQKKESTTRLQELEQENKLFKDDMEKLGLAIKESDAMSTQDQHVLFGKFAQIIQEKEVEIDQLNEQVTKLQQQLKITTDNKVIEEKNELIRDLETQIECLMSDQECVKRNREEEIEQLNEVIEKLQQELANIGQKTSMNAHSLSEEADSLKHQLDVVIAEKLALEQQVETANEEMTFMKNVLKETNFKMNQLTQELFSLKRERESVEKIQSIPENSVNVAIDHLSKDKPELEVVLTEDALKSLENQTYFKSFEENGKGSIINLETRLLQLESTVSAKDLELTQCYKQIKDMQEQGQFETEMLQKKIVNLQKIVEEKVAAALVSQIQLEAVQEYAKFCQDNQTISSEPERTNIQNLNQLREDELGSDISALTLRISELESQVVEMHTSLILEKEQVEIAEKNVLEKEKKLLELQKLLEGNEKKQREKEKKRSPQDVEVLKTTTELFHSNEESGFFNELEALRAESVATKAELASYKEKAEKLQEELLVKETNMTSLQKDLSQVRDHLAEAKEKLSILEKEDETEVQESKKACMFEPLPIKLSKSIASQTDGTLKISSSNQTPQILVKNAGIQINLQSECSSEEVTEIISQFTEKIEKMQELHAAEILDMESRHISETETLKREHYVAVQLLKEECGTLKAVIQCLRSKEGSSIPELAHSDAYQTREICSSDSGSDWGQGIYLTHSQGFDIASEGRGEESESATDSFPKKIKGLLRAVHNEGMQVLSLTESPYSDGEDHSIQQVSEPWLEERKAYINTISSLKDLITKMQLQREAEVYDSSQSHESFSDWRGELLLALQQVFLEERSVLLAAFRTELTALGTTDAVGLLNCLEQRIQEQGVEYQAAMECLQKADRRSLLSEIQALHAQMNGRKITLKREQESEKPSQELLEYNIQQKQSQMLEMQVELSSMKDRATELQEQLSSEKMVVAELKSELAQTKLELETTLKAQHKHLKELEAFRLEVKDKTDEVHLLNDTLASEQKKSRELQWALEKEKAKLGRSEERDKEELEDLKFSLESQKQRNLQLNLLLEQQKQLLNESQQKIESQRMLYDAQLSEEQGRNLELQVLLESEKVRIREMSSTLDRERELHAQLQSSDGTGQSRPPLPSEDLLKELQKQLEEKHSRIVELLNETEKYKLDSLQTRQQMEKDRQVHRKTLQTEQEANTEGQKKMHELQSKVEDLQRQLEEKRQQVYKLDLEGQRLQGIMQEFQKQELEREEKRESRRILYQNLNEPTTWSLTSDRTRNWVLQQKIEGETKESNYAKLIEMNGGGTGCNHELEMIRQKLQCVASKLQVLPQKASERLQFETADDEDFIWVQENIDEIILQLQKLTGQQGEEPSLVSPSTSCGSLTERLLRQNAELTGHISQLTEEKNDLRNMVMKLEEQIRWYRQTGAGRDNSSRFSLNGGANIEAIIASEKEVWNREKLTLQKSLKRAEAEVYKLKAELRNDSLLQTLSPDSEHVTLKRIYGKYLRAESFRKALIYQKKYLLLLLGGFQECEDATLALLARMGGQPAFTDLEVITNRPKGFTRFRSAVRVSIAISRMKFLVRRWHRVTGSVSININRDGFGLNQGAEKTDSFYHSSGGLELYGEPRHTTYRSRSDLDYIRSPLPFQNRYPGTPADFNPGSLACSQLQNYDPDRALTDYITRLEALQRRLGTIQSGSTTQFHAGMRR
UniProt P09972: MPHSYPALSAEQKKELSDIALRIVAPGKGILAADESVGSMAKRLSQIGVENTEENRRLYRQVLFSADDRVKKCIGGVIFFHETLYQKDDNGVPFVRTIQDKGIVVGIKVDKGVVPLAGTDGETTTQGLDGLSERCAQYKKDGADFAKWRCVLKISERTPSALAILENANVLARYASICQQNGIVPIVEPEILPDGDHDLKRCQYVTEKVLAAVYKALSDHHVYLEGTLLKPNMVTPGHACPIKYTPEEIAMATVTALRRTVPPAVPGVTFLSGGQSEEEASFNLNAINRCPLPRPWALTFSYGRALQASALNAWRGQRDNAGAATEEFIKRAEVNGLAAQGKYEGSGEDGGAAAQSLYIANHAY
UniProt P49189: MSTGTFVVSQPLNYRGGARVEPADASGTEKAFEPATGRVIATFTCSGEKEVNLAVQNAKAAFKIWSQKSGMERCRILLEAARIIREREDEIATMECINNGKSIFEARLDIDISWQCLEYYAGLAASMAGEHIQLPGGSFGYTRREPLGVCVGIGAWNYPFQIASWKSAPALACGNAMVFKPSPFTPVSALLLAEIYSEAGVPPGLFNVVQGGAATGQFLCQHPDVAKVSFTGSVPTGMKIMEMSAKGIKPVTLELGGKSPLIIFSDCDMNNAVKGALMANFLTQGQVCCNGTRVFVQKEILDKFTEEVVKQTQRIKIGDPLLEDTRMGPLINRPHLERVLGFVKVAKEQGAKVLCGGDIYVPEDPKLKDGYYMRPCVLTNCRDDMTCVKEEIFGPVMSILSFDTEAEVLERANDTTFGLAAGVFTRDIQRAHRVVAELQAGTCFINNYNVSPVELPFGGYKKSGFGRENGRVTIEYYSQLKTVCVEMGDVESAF
UniProt Q12904: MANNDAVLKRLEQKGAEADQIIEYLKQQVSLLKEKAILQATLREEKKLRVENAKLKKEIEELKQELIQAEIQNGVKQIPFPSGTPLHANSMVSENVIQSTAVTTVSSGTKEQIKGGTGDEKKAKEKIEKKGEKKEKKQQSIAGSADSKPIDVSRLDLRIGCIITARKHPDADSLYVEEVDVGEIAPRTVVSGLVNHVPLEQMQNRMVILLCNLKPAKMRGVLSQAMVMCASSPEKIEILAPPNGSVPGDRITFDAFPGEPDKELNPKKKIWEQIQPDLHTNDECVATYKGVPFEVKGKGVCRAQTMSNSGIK
UniProt Q9UJX4, whole entry, looked up: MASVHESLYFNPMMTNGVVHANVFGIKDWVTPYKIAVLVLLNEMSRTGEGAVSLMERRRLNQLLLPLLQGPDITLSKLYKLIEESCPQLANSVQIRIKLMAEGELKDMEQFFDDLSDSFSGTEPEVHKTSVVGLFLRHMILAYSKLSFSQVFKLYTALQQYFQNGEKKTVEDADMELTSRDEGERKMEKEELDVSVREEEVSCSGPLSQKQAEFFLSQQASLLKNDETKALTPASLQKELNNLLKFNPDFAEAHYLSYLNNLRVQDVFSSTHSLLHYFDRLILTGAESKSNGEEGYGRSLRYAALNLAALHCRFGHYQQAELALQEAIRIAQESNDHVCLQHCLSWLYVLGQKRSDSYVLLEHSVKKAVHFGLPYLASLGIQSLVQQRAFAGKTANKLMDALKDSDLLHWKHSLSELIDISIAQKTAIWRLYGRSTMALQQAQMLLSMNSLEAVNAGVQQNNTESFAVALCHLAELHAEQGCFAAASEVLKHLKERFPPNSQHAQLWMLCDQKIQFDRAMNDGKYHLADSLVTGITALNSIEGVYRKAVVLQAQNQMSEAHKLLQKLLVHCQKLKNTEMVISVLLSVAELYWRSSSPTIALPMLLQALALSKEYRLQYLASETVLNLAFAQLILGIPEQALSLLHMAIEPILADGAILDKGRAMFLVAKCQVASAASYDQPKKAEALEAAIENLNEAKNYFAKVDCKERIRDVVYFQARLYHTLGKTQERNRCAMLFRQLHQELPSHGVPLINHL
UniProt P05062: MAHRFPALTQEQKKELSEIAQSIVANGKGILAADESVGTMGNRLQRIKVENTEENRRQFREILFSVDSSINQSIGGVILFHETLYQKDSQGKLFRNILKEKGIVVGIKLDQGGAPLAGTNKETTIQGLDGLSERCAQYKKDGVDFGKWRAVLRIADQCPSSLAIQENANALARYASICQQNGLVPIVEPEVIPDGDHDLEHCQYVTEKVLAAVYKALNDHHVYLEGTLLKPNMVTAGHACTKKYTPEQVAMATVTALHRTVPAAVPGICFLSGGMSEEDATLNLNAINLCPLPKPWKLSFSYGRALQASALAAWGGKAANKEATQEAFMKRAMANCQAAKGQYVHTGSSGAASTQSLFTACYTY

Compound: CC1Cc2ccccc2N1C(=O)C1CCCN(C1)C(=O)CCl (mixture of isomers) [TRIM25 ligand 11 (diastereomer mixture)]
Assay: probe-labelled cysteine peptide fold change vs DMSO (competition) (log2 fold change); higher = less target engagement (more negative = stronger competition)
Settings: THP-1, incubation time: 4 h
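Further: competitive chemoproteomic profiling in live THP-1 cells with an iodoacetamide desthiobiotin (IA-DTB) probe, comparing probe-labelled peptide intensities in compound-treated cells against DMSO-treated controls.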

Target | probe-labelled cysteine peptide fold change (10 µM) | probe-labelled cysteine peptide fold change (50 µM)
ANAPC1_Q9H1A4_1630_LLVPVDVDTNTPCYALLEVTYK (UniProt Q9H1A4) | -0.0593 | -0.0545
ALOX5_P09917_450_DLTYASLCFPEAIK (UniProt P09917) | -0.0165 | -0.0147
AGL_P35573_259_FSCDVAEGK (UniProt P35573) | 0.119 | 0.206
AHRR_A9YTQ3_485_DVGEDQVHPPLCHFPQR (UniProt A9YTQ3) | 0.678 | 0.583
AIP_O00170_254_LVVEEYYEVLDHCSSILNK (UniProt O00170) | 0.0526 | -0.326
ANAPC10_Q9UM13_78_TLCIYADYK (UniProt Q9UM13) | -0.0443 | 0.201
AKAP9_Q99996_836_QQCIQLNEEIEK (UniProt Q99996) | -0.0448 | 0.113
AKAP8L_Q9ULX6_128_YDSYESCDSR (UniProt Q9ULX6) | 0.0406 | -0.0423
ALDOC_P09972_240_PNMVTPGHACPIK (UniProt P09972) | 0.0718 | 0.0465
AKR1C3_P42330_242_WVDPNSPVLLEDPVLCALAK (UniProt P42330) | 0.0488 | -0.0816
AIP_O00170_78_LPVWETIVCTMR (UniProt O00170) | -0.126 | 1.17
ALDH9A1_P49189_96_EREDEIATMECINNGK (UniProt P49189) | -0.125 | -0.144
AHNAK_Q09666_2162_LEGDLTGPSVDVEVPDVELECPDAK (UniProt Q09666) | 0.138 | -0.0439
AKAP17A_Q02040_522_SVNGSVAEEAPCK (UniProt Q02040) | -0.157 | -0.189
AMPD2_Q01433_263_YMALSLQSFCPTTR (UniProt Q01433) | -0.0514 | 0.0728
AIMP1_Q12904_284_IWEQIQPDLHTNDECVATYK (UniProt Q12904) | 0.0398 | -0.218
AIMP1_Q12904_211_MVILLCNLK (UniProt Q12904) | 0.0765 | 0.165
AIP_O00170_122_HCCGVAQMR (UniProt O00170) | -0.0346 | -0.238
ANAPC4_Q9UJX5_732_VSCVLSSNLR (UniProt Q9UJX5) | 0.0527 | 0.171
AK2_P54819_40_LAENFCVCHLATGDMLR (UniProt P54819) | 0.0915 | -0.129
ALDOC_P09972_240_ALSDHHVYLEGTLLKPNMVTPGHACPIK (UniProt P09972) | -0.105 | -0.326
AKAP8_O43823_395_IQFACSVCK (UniProt O43823) | -0.0931 | 0.0541

Target | probe-labelled cysteine peptide fold change (10 µM) | probe-labelled cysteine peptide fold change (50 µM)
AHSA1_O95433_56_CEVTEVSK (UniProt O95433) | 0.103 | 0.165
ALAS1_P13196_124_GSSVFCK (UniProt P13196) | 0.142 | 0.31
ALDH3A2_P51648_425_HSFDTFSHQRPCLLK (UniProt P51648) | -0.0226 | -0.197
ALDH5A1_P51649_93_WLPAAATFPVQDPASGAALGMVADCGVR (UniProt P51649) | 0.0445 | -0.167
AKT2_P31751_124_CGSPSDSSTTEEMEVAVSK (UniProt P31751) | 0.019 | -0.15
ALDH9A1_P49189_173_SAPALACGNAMVFK (UniProt P49189) | 0.142 | 0.123
AMDHD2_Q9Y303_261_CIFYGMIADGTHTNPAALR (UniProt Q9Y303) | -0.00488 | 0.102
ALG2_Q9H553_137_ILFYCHFPDLLLTK (UniProt Q9H553) | 0.0813 | 0.301
ALS2_Q96Q42_1454_SFCTGK (UniProt Q96Q42) | 0.0963 | 0.0476
ALAD_P13716_75_CVLIFGVPSR (UniProt P13716) | 0.00691 | 0.122
ANAPC5_Q9UJX4_203_EEEVSCSGPLSQK (UniProt Q9UJX4) | 0.0518 | -0.117
AKAP9_Q99996_3508_LIEMNGGGTGCNHELEMIR (UniProt Q99996) | 0.0786 | -0.04
ALDH2_P05091_179_HEPVGVCGQIIPWNFPLLMQAWK (UniProt P05091) | -0.0541 | 0.0323
AHCYL2_Q96HN2_232_IVGCTHITAQTAVLMETLGALGAQCR (UniProt Q96HN2) | 0.24 | -0.144
ANAPC5_Q9UJX4_312_YAALNLAALHCR (UniProt Q9UJX4) | -0.0472 | 0.14
ALDOB_P05062_240_ALNDHHVYLEGTLLKPNMVTAGHACTK (UniProt P05062) | 0.409 | 0.274
AHCTF1_Q8WYP5_521_CLVAGLLSPR (UniProt Q8WYP5) | -0.0861 | -0.0696
ALDH1L1_O75891_707_GENCIAAGR (UniProt O75891) | -0.053 | -0.175
ANAPC11_Q9NYG5_73+76_WLHAQQVQQHCPMCR (UniProt Q9NYG5) | -0.13 | -0.211
ALDOA_P04075_339_RALANSLACQGK (UniProt P04075) | -0.0559 | -0.0356
AHCYL1_O43865_172_IVGCTHITAQTAVLIETLCALGAQCR (UniProt O43865) | -0.215 | -0.0246
